Where a name gives a salt, the structure may show the parent alone. This is one part of the list. Hit calls seldom repeat between salt and free forms of one compound.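 Kinases, fused to nanoluciferase, were expressed in K562 cells; luminescence was measured every 4 h from 2 to 18 h as percent of control (DMSO = 100%, positive control = 0%). A time point is decreased if signal falls significantly (2 sigma). Hits were called by the authors by a rule that is not shown; the count of time points alone does not decide it.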
What was measured:
Test in all cases: number of time points (of 5) at which kinase-Nluc abundance scored as decreased, DMSO-normalised (count); higher = more persistent destabilization
Conditions in all cases: K562; 2-18 h
[1] = target: PRKCA (UniProt P17252)
[2] = target: PTK2 (UniProt Q05397)
[3] = target: PTK2B (UniProt Q14289)
[4] = target: RAF1 (UniProt P04049)
[5] = target: RAF1_S257L (clone: RAF1_mut) (UniProt P04049)
[6] = target: RET (UniProt P07949)
[7] = target: RET_M918T (clone: RET_mut) (UniProt P07949)
[8] = target: RIOK1 (UniProt Q9BRS2)
[9] = target: RIPK1 (UniProt Q13546)
[10] = target: RIPK2 (UniProt O43353)

Sequences of proteins named here, by UniProt entry; tags and fusion partners are left off. A change or cut given only in a name is not applied to a line headed by its entry.
UniProt Q05397, whole entry, looked up: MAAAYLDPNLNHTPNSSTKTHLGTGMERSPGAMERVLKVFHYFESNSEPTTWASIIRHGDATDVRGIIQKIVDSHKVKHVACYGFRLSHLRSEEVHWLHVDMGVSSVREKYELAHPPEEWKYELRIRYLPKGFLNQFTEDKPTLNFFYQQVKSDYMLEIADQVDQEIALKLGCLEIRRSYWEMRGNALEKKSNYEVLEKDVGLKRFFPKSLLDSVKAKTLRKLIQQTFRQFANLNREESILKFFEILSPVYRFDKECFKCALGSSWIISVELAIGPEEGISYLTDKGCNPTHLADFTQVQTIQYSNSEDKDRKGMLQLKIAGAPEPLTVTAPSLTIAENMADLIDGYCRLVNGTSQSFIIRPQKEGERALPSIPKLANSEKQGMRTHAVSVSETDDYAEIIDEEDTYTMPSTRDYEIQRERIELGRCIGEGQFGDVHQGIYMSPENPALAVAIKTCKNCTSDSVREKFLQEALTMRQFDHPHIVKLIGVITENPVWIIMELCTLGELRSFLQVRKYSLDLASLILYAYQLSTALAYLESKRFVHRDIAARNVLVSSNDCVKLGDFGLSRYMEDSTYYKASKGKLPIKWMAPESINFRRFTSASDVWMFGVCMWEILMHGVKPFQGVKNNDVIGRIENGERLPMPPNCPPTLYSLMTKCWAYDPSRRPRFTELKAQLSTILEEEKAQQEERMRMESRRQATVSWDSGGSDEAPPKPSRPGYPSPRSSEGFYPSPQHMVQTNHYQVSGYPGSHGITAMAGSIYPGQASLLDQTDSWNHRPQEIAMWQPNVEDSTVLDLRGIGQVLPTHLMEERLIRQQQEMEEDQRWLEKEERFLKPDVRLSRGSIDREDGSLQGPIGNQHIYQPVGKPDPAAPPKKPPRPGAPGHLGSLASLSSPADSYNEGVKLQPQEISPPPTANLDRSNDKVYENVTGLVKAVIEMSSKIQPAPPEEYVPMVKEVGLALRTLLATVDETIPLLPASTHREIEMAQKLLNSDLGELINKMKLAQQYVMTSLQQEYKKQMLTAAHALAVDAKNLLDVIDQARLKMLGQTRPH
UniProt Q14289, whole entry, looked up: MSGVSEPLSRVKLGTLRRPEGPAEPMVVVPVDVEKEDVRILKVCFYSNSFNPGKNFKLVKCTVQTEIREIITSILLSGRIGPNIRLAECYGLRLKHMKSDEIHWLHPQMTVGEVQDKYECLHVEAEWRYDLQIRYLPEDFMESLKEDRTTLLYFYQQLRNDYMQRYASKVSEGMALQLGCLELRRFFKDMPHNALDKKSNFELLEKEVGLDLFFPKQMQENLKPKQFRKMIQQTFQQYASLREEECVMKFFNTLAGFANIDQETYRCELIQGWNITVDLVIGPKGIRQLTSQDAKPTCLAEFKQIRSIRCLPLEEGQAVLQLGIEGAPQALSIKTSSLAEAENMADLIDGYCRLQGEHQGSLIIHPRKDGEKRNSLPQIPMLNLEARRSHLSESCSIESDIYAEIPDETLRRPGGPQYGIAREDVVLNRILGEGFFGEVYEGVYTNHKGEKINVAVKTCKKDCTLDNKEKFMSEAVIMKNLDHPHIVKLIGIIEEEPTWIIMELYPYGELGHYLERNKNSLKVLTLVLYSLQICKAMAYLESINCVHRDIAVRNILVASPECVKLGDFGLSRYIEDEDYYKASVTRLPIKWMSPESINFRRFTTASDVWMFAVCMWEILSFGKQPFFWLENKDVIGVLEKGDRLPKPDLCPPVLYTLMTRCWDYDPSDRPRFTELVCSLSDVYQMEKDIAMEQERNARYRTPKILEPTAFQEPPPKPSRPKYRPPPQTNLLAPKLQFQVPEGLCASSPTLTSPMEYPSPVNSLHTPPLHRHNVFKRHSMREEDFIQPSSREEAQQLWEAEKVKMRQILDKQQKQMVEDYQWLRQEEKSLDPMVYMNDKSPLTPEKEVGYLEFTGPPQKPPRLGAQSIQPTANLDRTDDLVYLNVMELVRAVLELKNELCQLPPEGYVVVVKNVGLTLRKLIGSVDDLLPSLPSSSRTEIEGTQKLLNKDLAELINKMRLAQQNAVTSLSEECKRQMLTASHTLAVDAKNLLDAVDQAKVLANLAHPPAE
UniProt P07949, whole entry, looked up: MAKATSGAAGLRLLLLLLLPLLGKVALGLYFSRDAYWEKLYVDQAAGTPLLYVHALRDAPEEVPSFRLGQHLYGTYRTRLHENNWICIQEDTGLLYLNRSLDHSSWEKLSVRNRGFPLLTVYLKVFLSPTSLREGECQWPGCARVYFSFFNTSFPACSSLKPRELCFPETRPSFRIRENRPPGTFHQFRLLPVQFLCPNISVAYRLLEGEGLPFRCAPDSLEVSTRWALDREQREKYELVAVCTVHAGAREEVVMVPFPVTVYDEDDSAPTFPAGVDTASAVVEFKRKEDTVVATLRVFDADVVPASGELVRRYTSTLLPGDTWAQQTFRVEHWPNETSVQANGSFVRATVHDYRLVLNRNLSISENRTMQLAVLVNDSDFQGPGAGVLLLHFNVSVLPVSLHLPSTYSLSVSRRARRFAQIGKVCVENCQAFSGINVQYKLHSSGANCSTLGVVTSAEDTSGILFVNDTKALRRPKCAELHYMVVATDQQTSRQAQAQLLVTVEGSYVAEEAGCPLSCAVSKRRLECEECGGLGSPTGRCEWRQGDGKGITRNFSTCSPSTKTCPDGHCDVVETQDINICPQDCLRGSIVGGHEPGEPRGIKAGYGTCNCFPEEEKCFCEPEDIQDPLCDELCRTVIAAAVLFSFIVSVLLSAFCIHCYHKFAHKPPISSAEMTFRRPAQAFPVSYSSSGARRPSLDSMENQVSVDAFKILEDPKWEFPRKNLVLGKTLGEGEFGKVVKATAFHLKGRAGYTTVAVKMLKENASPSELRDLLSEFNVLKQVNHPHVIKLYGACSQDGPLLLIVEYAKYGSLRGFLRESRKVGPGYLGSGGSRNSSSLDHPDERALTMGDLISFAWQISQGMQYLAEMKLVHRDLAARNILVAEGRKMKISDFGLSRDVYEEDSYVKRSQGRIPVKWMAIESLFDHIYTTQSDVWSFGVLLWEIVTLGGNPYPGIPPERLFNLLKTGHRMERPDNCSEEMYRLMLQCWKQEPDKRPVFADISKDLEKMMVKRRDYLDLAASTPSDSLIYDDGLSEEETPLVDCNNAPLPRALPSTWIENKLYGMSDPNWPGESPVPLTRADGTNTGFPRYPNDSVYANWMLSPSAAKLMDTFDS
UniProt P07949, whole entry M918T, looked up: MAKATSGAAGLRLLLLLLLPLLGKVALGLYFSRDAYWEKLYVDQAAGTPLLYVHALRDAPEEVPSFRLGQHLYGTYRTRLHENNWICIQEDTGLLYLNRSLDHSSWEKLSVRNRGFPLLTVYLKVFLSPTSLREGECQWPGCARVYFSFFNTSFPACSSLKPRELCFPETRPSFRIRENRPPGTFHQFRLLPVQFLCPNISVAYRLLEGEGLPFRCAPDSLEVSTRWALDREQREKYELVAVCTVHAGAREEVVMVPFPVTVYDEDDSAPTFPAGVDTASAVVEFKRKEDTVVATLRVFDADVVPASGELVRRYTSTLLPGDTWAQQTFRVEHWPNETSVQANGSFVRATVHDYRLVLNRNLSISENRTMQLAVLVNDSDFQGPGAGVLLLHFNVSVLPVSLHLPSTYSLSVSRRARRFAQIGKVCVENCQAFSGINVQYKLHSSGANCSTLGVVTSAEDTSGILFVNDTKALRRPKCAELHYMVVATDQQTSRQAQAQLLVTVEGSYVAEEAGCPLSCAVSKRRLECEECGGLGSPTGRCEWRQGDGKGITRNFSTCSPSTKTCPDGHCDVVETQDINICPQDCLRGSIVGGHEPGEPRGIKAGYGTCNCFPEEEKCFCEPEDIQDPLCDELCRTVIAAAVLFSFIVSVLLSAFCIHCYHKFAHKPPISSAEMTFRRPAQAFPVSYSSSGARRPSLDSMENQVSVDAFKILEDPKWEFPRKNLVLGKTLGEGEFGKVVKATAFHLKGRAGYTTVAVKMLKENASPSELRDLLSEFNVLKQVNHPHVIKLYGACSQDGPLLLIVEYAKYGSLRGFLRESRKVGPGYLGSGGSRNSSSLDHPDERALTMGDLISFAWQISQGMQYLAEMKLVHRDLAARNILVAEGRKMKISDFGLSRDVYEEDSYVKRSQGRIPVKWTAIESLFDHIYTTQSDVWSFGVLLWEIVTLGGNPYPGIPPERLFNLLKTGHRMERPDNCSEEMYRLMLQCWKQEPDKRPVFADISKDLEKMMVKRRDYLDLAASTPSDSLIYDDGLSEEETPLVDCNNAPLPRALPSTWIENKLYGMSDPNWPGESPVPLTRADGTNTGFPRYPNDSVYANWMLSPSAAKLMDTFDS
UniProt Q9BRS2: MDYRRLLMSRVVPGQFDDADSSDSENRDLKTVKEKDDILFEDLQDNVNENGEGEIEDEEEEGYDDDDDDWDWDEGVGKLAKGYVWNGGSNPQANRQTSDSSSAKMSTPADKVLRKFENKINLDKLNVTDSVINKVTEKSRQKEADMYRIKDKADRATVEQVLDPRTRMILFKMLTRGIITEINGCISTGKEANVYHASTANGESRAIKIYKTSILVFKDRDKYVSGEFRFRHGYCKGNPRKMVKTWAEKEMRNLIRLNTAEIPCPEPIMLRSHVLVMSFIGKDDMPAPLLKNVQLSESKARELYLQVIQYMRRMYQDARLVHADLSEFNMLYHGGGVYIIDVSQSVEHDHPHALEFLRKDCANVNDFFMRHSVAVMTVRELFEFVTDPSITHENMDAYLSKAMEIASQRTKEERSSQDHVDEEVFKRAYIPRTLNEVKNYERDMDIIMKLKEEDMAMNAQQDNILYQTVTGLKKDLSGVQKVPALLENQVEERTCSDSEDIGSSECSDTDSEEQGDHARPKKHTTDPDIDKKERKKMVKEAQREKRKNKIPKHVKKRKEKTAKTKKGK
UniProt Q13546: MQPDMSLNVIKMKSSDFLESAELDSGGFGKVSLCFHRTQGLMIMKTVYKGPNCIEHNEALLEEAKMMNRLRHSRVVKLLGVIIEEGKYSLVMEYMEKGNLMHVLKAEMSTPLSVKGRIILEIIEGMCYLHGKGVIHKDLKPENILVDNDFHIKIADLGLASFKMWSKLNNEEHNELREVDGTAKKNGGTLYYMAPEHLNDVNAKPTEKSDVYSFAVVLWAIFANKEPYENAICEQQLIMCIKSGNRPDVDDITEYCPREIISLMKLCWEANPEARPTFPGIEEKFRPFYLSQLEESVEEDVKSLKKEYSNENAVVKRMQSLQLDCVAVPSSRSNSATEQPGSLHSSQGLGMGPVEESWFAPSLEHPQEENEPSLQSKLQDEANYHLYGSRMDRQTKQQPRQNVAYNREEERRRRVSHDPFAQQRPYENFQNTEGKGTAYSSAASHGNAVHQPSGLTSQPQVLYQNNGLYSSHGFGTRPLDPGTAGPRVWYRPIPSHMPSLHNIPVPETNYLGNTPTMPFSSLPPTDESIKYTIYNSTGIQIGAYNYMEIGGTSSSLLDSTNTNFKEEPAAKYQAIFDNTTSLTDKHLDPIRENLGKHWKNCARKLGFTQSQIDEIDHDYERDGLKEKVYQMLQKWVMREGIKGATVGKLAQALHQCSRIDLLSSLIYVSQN

| Structure (SMILES) | number of time points [1] | number of time points [2] | number of time points [3] | number of time points [4] | number of time points [5] | number of time points [6] | number of time points [7] | number of time points [8] | number of time points [9] | number of time points [10] |
| --- | --- | --- | --- | --- | --- | --- | --- | --- | --- | --- |
| Cc1[nH]c(/C=C2\C(=O)Nc3ccccc32)c(C)c1CCC(=O)O [(Z)-Orantinib] (10 µM) | 0 | 0 | 0 | 0 | 0 | 0 | 0 | 0 | 0 | 0 |
| Cc1ccc2cc(-c3c(C)ccc(C(=O)c4c(-c5ccccc5)n(C)n(-c5ccccc5)c4=O)c3N)ccc2n1 (2.5 µM) | 0 | 0 | 0 | 0 | 0 | 0 | 0 | 0 | 0 | 0 |
| Nc1ccc(-c2cnc(N)c(-c3ccc(Cl)cc3)c2)cn1 (10 µM) | 0 | 0 | 0 | 0 | 0 | 0 | 0 | 0 | 0 | 0 |
| COc1cc2nccc(Oc3ccc(NC(=O)NC4CC4)c(Cl)c3)c2cc1C(N)=O [Lenvatinib] (10 µM) | 0 | 2 | 0 | 0 | 0 | 0 | 0 | 0 | 0 | 0 |
| CCN1CCN(Cc2ccc(Nc3ncc(F)c(-c4cc(F)c5nc(C)n(C(C)C)c5c4)n3)nc2)CC1 [Abemaciclib] (2 µM) | 0 | 0 | 0 | 0 | 0 | 0 | 0 | 0 | 0 | 0 |
| CC(=O)c1c(C)cc2cccc(O)c2c1O [Nepodin] (10 µM) | 0 | 0 | 0 | 0 | 0 | 0 | 0 | 0 | 0 | 0 |
| Cc1nc2sccn2c(=O)c1CCN1CCC(=C(c2ccccc2)c2ccc(F)cc2)CC1 (10 µM) | 1 | 0 | 0 | 0 | 0 | 0 | 0 | 0 | 0 | 0 |
| CN1C(=O)N[C@H](Cc2c[nH]c3c(Cl)cccc23)C1=O [Necrostatin 2] (10 µM) | 0 | 0 | 0 | 0 | 0 | 0 | 0 | 0 | 0 | 0 |
| CCNc1nc(Nc2cc(F)c(C(=O)N3CCOCC3)cc2OC)ncc1C(F)(F)F [GNE-7915 (tosylate)] (10 µM) | 0 | 0 | 0 | 0 | 0 | 0 | 0 | 0 | 0 | 0 |
| Cc1[nH]c(/C=C2\C(=O)Nc3ccccc32)c(C)c1CCC(=O)O [Orantinib] (10 µM) | 0 | 0 | 0 | 0 | 0 | 0 | 0 | 0 | 0 | 0 |
| CN(C)CCSSCCNC(=O)C1CCN(C(=O)CSc2ccc(Cl)cc2)CC1 (10 µM) | 0 | 0 | 0 | 0 | 0 | 0 | 0 | 0 | 0 | 0 |
| CCCCCCCCCCCCC/C=C/[C@@H](O)[C@@H](N)CO [D-erythro-Sphingosine] (2.5 µM) | 0 | 0 | 0 | 0 | 0 | 0 | 0 | 0 | 0 | 0 |
| C[C@]1(O)CCN(c2nc(N3C[C@H](O)[C@@H](O)C3)cc(C(F)(F)F)c2C#N)C1 (10 µM) | 0 | 0 | 0 | 0 | 0 | 0 | 0 | 0 | 0 | 0 |
| Cc1ccccc1-c1c2nccc(-c3ccc(F)cc3F)c2cc[n+]1[O-] (10 µM) | 0 | 0 | 0 | 0 | 0 | 0 | 0 | 0 | 0 | 0 |
| COc1cc2ncnc(Nc3ccc(Cl)cc3F)c2cc1OC (10 µM) | 0 | 0 | 0 | 0 | 0 | 0 | 0 | 0 | 0 | 0 |
| CCS(=O)(=O)c1ncc(Cl)c(C(=O)N(Cc2ccc(Cl)cc2)Cc2ccco2)n1 (2.5 µM) | 0 | 0 | 0 | 0 | 0 | 0 | 0 | 2 | 0 | 0 |
| CCc1cc2c(cc1N1CCC(N3CCOCC3)CC1)C(C)(C)c1[nH]c3cc(C#N)ccc3c1C2=O [Alectinib (Hydrochloride)] (2 µM) | 0 | 0 | 0 | 0 | 0 | 0 | 0 | 0 | 0 | 0 |
| CN1CCC(c2cc(-c3ccncc3)c(-c3ccc(F)cc3)[nH]2)CC1 (10 µM) | 0 | 0 | 0 | 0 | 0 | 0 | 0 | 0 | 0 | 0 |
| CC#CC(=O)Nc1ccc2ncnc(Nc3cccc(Br)c3)c2c1 (10 µM) | 0 | 1 | 0 | 0 | 0 | 2 | 2 | 0 | 0 | 0 |
| Cc1cc(=O)oc2c(C=O)c(O)ccc12 (10 µM) | 0 | 0 | 0 | 0 | 0 | 0 | 0 | 0 | 0 | 0 |
| Cc1cccc(Oc2cnc(=O)[nH]c2)c1 [Tolimidone] (10 µM) | 0 | 0 | 0 | 0 | 0 | 0 | 0 | 0 | 0 | 0 |
| CCOC(=O)N1CCN(C(=O)[C@H](Cc2cccc(C(=N)N)c2)NS(=O)(=O)c2c(C(C)C)cc(C(C)C)cc2C(C)C)CC1 (10 µM) | 0 | 0 | 0 | 0 | 0 | 0 | 0 | 0 | 0 | 0 |
| CN(C)CCCOc1ccc(-c2ccc3ncc4c(c3c2)n(C2CCOCC2)c(=O)n4C)cn1 (2 µM) | 0 | 0 | 0 | 0 | 0 | 0 | 0 | 0 | 0 | 0 |
| C[C@H](c1ccnc(Nc2nc3ccc(-c4cc(N(C)C)ncn4)cc3[nH]2)c1)N1CCN(C(=O)CC(F)(F)F)CC1 (2.5 µM) | 0 | 0 | 0 | 0 | 0 | 0 | 0 | 0 | 0 | 0 |

Three entries from above, reformatted:
Structure (SMILES)	number of time points [1]	number of time points [2]	number of time points [3]	number of time points [4]	number of time points [5]	number of time points [6]	number of time points [7]	number of time points [8]	number of time points [9]	number of time points [10]
Cc1cccc(Oc2cnc(=O)[nH]c2)c1 [Tolimidone] (10 µM)	0	0	0	0	0	0	0	0	0	0
CCOC(=O)N1CCN(C(=O)[C@H](Cc2cccc(C(=N)N)c2)NS(=O)(=O)c2c(C(C)C)cc(C(C)C)cc2C(C)C)CC1 (10 µM)	0	0	0	0	0	0	0	0	0	0
CN(C)CCCOc1ccc(-c2ccc3ncc4c(c3c2)n(C2CCOCC2)c(=O)n4C)cn1 (2 µM)	0	0	0	0	0	0	0	0	0	0

Carrying on.

| Structure (SMILES) | number of time points [1] | number of time points [2] | number of time points [3] | number of time points [4] | number of time points [5] | number of time points [6] | number of time points [7] | number of time points [8] | number of time points [9] | number of time points [10] |
| --- | --- | --- | --- | --- | --- | --- | --- | --- | --- | --- |
| NC(=O)c1ccc2[nH]ccc2c1 (10 µM) | 0 | 0 | 0 | 0 | 0 | 0 | 0 | 0 | 0 | 0 |
| COc1ccc(Cl)c(Nc2nc3ccccc3nc2NS(=O)(=O)c2cccc(NC(=O)C(C)(C)N)c2)c1 [Pilaralisib] (10 µM) | 0 | 0 | 0 | 0 | 0 | 0 | 0 | 0 | 0 | 0 |
| C[C@@H](c1ccc(F)cc1)n1nnc2cnc3ccc(-c4ccc5ocnc5c4)cc3c21 (10 µM) | 0 | 0 | 0 | 0 | 0 | 0 | 0 | 0 | 0 | 0 |
| CC(C)(O)CNc1ncc(-c2ccnc(Nc3ccnc(Cl)c3)n2)c(CC2CC2)n1 (2.5 µM) | 0 | 0 | 0 | 0 | 0 | 0 | 0 | 0 | 0 | 0 |
| O=Nc1c(-c2c(O)[nH]c3ccc(F)cc23)[nH]c2ccccc12 [5'-Fluoroindirubinoxime] (10 µM) | 0 | 0 | 0 | 0 | 0 | 5 | 5 | 0 | 0 | 0 |
| Nc1cc(C(F)(F)F)c(-c2cc(N3CCOCC3)nc(N3CCOCC3)n2)cn1 [Buparlisib (Hydrochloride)] (2.5 µM) | 0 | 0 | 0 | 2 | 0 | 0 | 0 | 0 | 0 | 0 |
| O=C1NC(=O)/C(=C\c2cccc(C(F)(F)F)c2)S1 (2.5 µM) | 0 | 0 | 0 | 0 | 0 | 0 | 0 | 0 | 0 | 0 |
| COc1cc(/C=C/C(=O)NCC(O)c2ccc(O)cc2)ccc1O (stereo not given) [N-Feruloyloctopamine] (2.5 µM) | 0 | 0 | 0 | 0 | 0 | 0 | 0 | 0 | 0 | 0 |
| Cc1cc(Nc2ncnc3ccc(NC4=NC(C)(C)CO4)cc23)ccc1Oc1ccn2ncnc2c1 [Tucatinib] (2.5 µM) | 0 | 0 | 0 | 0 | 0 | 0 | 0 | 0 | 0 | 0 |
| O=C1N[C@@H](Cc2c[nH]c3ccccc23)C(=O)N2CCC[C@@H]12 [Brevianamide F] (10 µM) | 0 | 0 | 0 | 0 | 0 | 0 | 0 | 0 | 0 | 0 |
| COc1cc2nccc(Oc3ccc(NC(=O)NC4CC4)c(Cl)c3)c2cc1C(N)=O [Lenvatinib (mesylate)] (10 µM) | 0 | 1 | 0 | 0 | 4 | 0 | 0 | 2 | 2 | 3 |
| Cn1cc(-c2ccc3nnc(Sc4ccc5ncccc5c4)n3n2)cn1 (10 µM) | 0 | 0 | 0 | 0 | 0 | 0 | 0 | 0 | 0 | 0 |
| CCS(=O)(=O)Nc1ccc2[nH]c(O)c(C(=Nc3ccc(CN4CCCCC4)cc3)c3ccccc3)c2c1 [Hesperadin] (2.5 µM) | 0 | 2 | 0 | 3 | 4 | 2 | 3 | 2 | 3 | 3 |
| O=C1NC(=O)/C(=C/c2ccc3nccnc3c2)S1 (10 µM) | 0 | 0 | 0 | 0 | 0 | 0 | 0 | 0 | 0 | 0 |
| Nc1nc2ccc(Cl)cc2c2nc(-c3ccco3)nn12 (10 µM) | 0 | 0 | 0 | 0 | 0 | 0 | 0 | 0 | 0 | 0 |
| COCCNc1nc2ccc(C#CC3(O)CCCCC3)cc2n1-c1ccnc(N)n1 (10 µM) | 0 | 0 | 0 | 0 | 0 | 0 | 0 | 0 | 0 | 0 |
| Cn1cc(-c2ccc3c(c2)CCN3C(=O)Cc2cccc(C(F)(F)F)c2)c2c(N)ncnc21 (2.5 µM) | 0 | 0 | 0 | 0 | 0 | 0 | 0 | 0 | 0 | 0 |
| NC(=O)c1nc(Nc2ccccc2)sc1NC(=O)C1CCCCC1 (10 µM) | 0 | 0 | 0 | 0 | 0 | 0 | 0 | 0 | 0 | 0 |
| C=C(CC[C@@H](C(=O)O)[C@H]1[C@H](O)C[C@@]2(C)C3=C(CC[C@]12C)[C@@]1(C)CC[C@H](OC(C)=O)C(C)(C)[C@@H]1CC3)C(C)C [Pachymic acid] (10 µM) | 0 | 0 | 0 | 0 | 0 | 0 | 0 | 0 | 0 | 0 |
| c1cncc(CN2CCC(n3ncc4c(N5CCOCC5)nc(-c5ccc6[nH]ccc6c5)nc43)CC2)c1 (10 µM) | 0 | 1 | 0 | 2 | 4 | 0 | 4 | 1 | 0 | 3 |
| Nc1ncnc2c1c(-c1ccc(Oc3ccccc3)cc1)nn2C1CCCC1 (2.5 µM) | 0 | 0 | 0 | 0 | 0 | 0 | 0 | 0 | 0 | 0 |
| O=c1[nH]c(=O)n([C@@H]2O[C@H](CO)[C@@H](O)[C@@H]2O)cc1/C=C/Br [Sorivudine] (10 µM) | 0 | 0 | 0 | 0 | 0 | 0 | 0 | 0 | 0 | 0 |
| Cc1ccc(OCCSc2ncccn2)c(Br)c1 [ZLN024 (hydrochloride)] (10 µM) | 0 | 0 | 0 | 0 | 0 | 0 | 0 | 0 | 0 | 0 |
| FC(F)c1nc2ccccc2n1-c1nc(N2CCOCC2)nc(N2CCOCC2)n1 (2 µM) | 0 | 0 | 0 | 0 | 0 | 0 | 0 | 0 | 0 | 0 |

— the supplement of paper PMC12823440, “Inhibitors supercharge kinase turnover through native proteolytic circuits” (Nature, 2025)
